Where two headings read alike, the source gives them in different places.
Test system: astrocytoma Cl− channel
Experiment: Anion substitution, tail current reversal potential and current amplitude
Type: cell-based, human
[1] = equimolar (125 mM) replacement of external chloride, mean change from NaCl control
[2] = permeability ratio, Goldman-Hodgkin-Katz equation

Q: With `F` [Fluoride] as the compound, how does the ΔErev [1] read?
A: The ΔErev was 24.6 ± 3.0 mV.

Q: What about the Panion/PCl [2] of the same compound?
A: The Panion/PCl was 0.41 ± 0.05.

Q: Which ΔErev [1] does the source give for `O=S(=O)(O)CCO` [Isethionate] here?
A: The ΔErev was 18.5 ± 0.7 mV.

Q: What about the Panion/PCl [2] of the same compound?
A: The Panion/PCl was 0.51 ± 0.01.

Q: `O=[N+]([O-])O` [Nitrate] was tested. Which Panion/PCl did it give?
A: The Panion/PCl was 2.02 ± 0.58.

Q: And the ΔErev?
A: The ΔErev was −15.8 ± 8.8 mV.

Q: `CC(=O)O` [Acetate] was tested. Which ΔErev [1] did it give?
A: Its ΔErev is 4.0 ± 0 mV.

Q: And the Panion/PCl [2]?
A: Its Panion/PCl is 0.90 ± 0.02.

Q: Which results are given for `N[C@@H](CCC(=O)O)C(=O)O` [Glutamate]?
A: ΔErev [1]: 29.8 ± 2.3 mV; Panion/PCl [2]: 0.33 ± 0.18

Q: `Br` [Bromide] was tested. Which ΔErev [1] did it give?
A: Its ΔErev is −15.5 ± 6.3 mV.

Q: And the Panion/PCl [2]?
A: Its Panion/PCl is 1.95 ± 0.47.

Q: `I` [Iodide] was tested. Which ΔErev [1] did it give?
A: The ΔErev was −20.8 ± 7.5 mV.

Q: And the Panion/PCl [2]?
A: The Panion/PCl was 2.44 ± 0.65.

Source: patent publication US6870029B2, “Method of diagnosing and treating gliomas” (priority 1995, dated 2005)
